# Values joined by “and” are separate entries in the source; they are usually repeats but may differ in a detail not shown here. Equal entries are not always repeated. Hit rate of the full screen: of about 59,000 compounds, about 35 (0.06%) were called active. Inconclusive means that the source gave no clear call. Such entries were picked first, then a sample of the others. No stated cut-off is given here; in the data, active means max dye-equivalent concentration above about 10 nM; inconclusive means between about 1.1 nM and that limit; inactive means weaker than that.
# Assay: qHTS Assay for Spectroscopic Profiling in Texas Red Spectral Region
# Details: Compound fluorescence, Texas Red channel, 547/618 nm; hits give high values
# Summary of the method: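 Spectral interference profiling: each compound concentration's relative fluorescence, read with a 547 nm excitation and 618 nm emission filter pair, was normalized to a per-plate Texas Red standard curve.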
row,SMILES,max dye-equivalent concentration
1,Cn1nnnc1SCC(=O)NCc1cccc(C(=O)O)c1,inconclusive: 1.2e-09 M
2,CC1(C)CC2(CCCN3C(=O)CSC32)CCS1 (configuration not stated),inconclusive: 1.3e-09 M
3,COc1cccc(OC)c1C(=O)N1CCN(S(=O)(=O)c2ccccc2)CC1,inconclusive: 1.2e-09 M
4,CCCSc1nnc(Sc2nnnn2-c2ccccc2)s1,inconclusive: 2.9e-09 M
5,COCCN(C(=O)C(C)C)c1nnc(-c2cccc(C)c2)s1,inconclusive: 1.1e-09 M
6,COc1ccc(CNC(=O)c2cc3c(=O)n4ccccc4nc3n(CC3CCCO3)c2=N)cc1 (configuration not stated),inconclusive: 1.1e-09 M
7,COC(=O)CSc1nnc(-c2ccoc2C)n1-c1ccc(OC)cc1,inconclusive: 1.4e-09 M
8,Nc1c(C(=O)NCc2ccc3c(c2)OCO3)c2nc3ccccc3nc2n1CCCN1CCOCC1,inconclusive: 1.7e-09 M
9,O=C(c1ccc(S(=O)(=O)NCC2CCCO2)cc1)N1CCc2ccccc21 (configuration not stated),inconclusive: 1.5e-09 M
10,Oc1ccc(O)cc1,inconclusive: 1.2e-09 M
11,Cc1cc(C(=O)Nn2cnnc2)cs1,inconclusive: 1.2e-09 M
12,Cc1ccccc1OCc1nc(-c2ccc(NC(=O)c3ccco3)cc2)no1,inconclusive: 1.2e-09 M
13,COCC(=O)N1CCC2(CC1)CN(Cc1cc(C(F)(F)F)cc(C(F)(F)F)c1)C2,inactive
14,CCOC(=O)C1CCN(S(=O)(=O)C(F)(F)c2nc3ccccc3s2)CC1,inconclusive: 2.2e-09 M
15,CCN(CC)c1ccc(C2C(C(=O)OCCOC)=C(C)NC3=C2C(=O)CC(C)(C)C3)cc1 (configuration not stated),inconclusive: 1.2e-09 M
16,CC(C)(CNS(=O)(=O)c1ccc(F)cc1)CNS(=O)(=O)c1ccc(F)cc1,inconclusive: 1.1e-09 M
17,O=C(O)c1cc(-c2ccc(-c3ccccc3)cc2)nc2cc3ccccc3cc12,inconclusive: 1.1e-09 M
18,COc1cccc(-c2ccc3ncnc(Nc4ccccc4)c3c2)c1,inactive
19,CN(Cc1ccc(OC(F)F)cc1)C(=O)c1ccc2nccnc2c1,inconclusive: 1.8e-09 M
20,CCCn1c(SCC(=O)NC(=O)NCc2ccco2)n[nH]c1=O,inconclusive: 1.7e-09 M
21,CCN(CC)S(=O)(=O)c1ccc2c(c1)c(=O)c(C(=O)NCCOC)cn2C,inconclusive: 1.1e-09 M
22,Clc1ccc(CSc2nnc(-c3ccncc3)o2)c(Cl)c1,inconclusive: 1.1e-09 M

row,SMILES,max dye-equivalent concentration
1,COCc1nc2ccccc2n1Cc1ccccc1Br,inconclusive: 1.1e-09 M
2,Nc1nc(-c2nc3ccccc3[nH]2)cs1,inconclusive: 1.3e-09 M
3,CC1CCCCN1S(=O)(=O)c1ccc(C(=O)Nc2nnc(-c3cccs3)o2)cc1 (configuration not stated),inconclusive: 1.1e-09 M
4,COc1ccc(NC(=O)CN2CCN(S(=O)(=O)c3ccc(C(C)C)cc3)CC2)cc1OC,inconclusive: 1.1e-09 M
5,NC(=O)c1ncn([C@@H]2O[C@@H](CO)[C@@H](O)[C@H]2O)c1O,inconclusive: 1.2e-09 M
6,Cc1cc(=O)[nH]c(SCc2cccc(Br)c2)n1,inconclusive: 2e-09 M
7,C#CCOC(=O)CCC(=O)Nc1cc(OC)nc(OC)n1,inconclusive: 1.7e-09 M
8,O=C(Nc1ccc(N2CCCCC2)c(Cl)c1)c1cccnc1,inconclusive: 1.5e-09 M
9,CC(C)(C)N1C(=O)Cc2c1nc(N)c1c(N)nc(N3CCCCC3CO)c(C#N)c21 (configuration not stated),inconclusive: 1.4e-09 M
10,OCCNc1cc(-n2nc(-c3ccccc3)cc2-c2ccccc2)ncn1,inconclusive: 1.5e-09 M
11,CCOC(=O)c1sc(NC(C)=O)c(C(=O)OCC)c1C,inconclusive: 1.7e-09 M
12,CC(=O)Nc1ccccc1NC(=O)CN(C)S(=O)(=O)c1ccc(C)cc1,inconclusive: 2.2e-09 M
13,Cc1cc(C(F)(F)F)nn1Cc1ccc(C(=O)NCc2ccco2)o1,inconclusive: 1.8e-09 M
14,CCOC(=O)c1[nH]c2ccc(OC)cc2c1NC(=O)CN1CCSCC1,inconclusive: 1.6e-09 M
15,CC(C)[C@H](N)c1nnc(SCc2ccc(Cl)cc2)o1,inconclusive: 2.2e-09 M
16,O=C(NCC1CCCO1)C1CCCN(Cc2cnn(-c3ccccc3)c2-n2cccc2)C1 (configuration not stated),inconclusive: 1.2e-09 M
17,Cc1ccc(NC(=O)CSc2nnc(CCCCCNC(=O)OC(C)(C)C)o2)c(C)c1,inconclusive: 1.3e-09 M
18,Clc1ccc(CSc2nncn2-c2ccccn2)cc1,inconclusive: 1.6e-09 M
19,COc1ccc(CCNC(=O)CCS(=O)(=O)c2cccc3nsnc23)cc1OC,inconclusive: 1.2e-09 M
20,Cc1nc(C)c(C(=O)Nc2ccccc2-c2ccccc2)o1,inconclusive: 1.1e-09 M
21,Cc1nnc2n1N=CC=C(c1ccccc1)S2,inconclusive: 1.1e-09 M
22,O=C(NCc1cn2ccccc2n1)c1ccccc1,inconclusive: 1.7e-09 M

row,SMILES,max dye-equivalent concentration
1,Cc1ccc2cc(C#N)c(N3CCCC3)nc2c1C,inconclusive: 1.3e-09 M
2,Cc1cc(N2CCN(c3ccccn3)CC2)n2nc(C)nc2n1,inconclusive: 1.3e-09 M
3,N#CC1=C(N)Oc2n[nH]c(-c3ccccc3)c2C1c1ccncc1 (configuration not stated),inconclusive: 1.1e-09 M
4,CCOC(=O)c1[nH]cnc1C(=O)Nc1cccc(N)n1,inconclusive: 1.8e-09 M
5,Clc1ccccc1-c1nc(Nc2ccncc2)c2ccccc2n1,inactive
6,C#CCOC(=O)c1ccccc1C(=O)OCC#C,inconclusive: 2.2e-09 M
7,COc1ccc(C)cc1NC(=O)CSc1nc(SC)ns1,inactive
8,CN(C)CCCOc1nn(Cc2ccccc2)c2ccccc12,inactive
9,CC1Cc2ccccc2N1C(=O)C1CCN(S(=O)(=O)c2cccs2)CC1 (configuration not stated),inconclusive: 1.1e-09 M
10,CCCCC(c1nnnn1CC1CCCO1)N1CCN(c2cccc(C)c2C)CC1 (configuration not stated),inconclusive: 1.1e-09 M
11,COc1ccc2c(c1)N(CC[C@H]1CCCCN1C)c1ccccc1S2,inconclusive: 1.5e-09 M
12,Cc1c(C(=O)N2CCN(c3ccccn3)CC2)sc2ncnc(N3CCN(c4ccccc4)CC3)c12,inconclusive: 2.2e-09 M
13,COc1cccc(N(CC(=O)Nc2ccccc2C)S(C)(=O)=O)c1,inconclusive: 1.2e-09 M
14,COc1ccc(C[C@H](O)CN2CCOCC2)cc1,inconclusive: 1.1e-09 M
15,COC(=O)c1ccc(CSc2nnnn2C)o1,inconclusive: 1.2e-09 M
16,CCOC(=O)C1CCN(C(=O)Nc2ccc(NC(=O)C3CCN(C(=O)OCC)CC3)cc2)CC1,inconclusive: 1.4e-09 M
17,COc1ccc(-c2nc(C#N)c(NCC3CCCO3)o2)cc1 (configuration not stated),inconclusive: 1.5e-09 M
18,COc1ccc(C2C(C(=O)c3sc(C)nc3C)=C(O)C(=O)N2CCN(C)C)cc1OC (configuration not stated),inconclusive: 1.4e-09 M
19,O=C(c1ccc2c(c1)OCCO2)C1CCN(C(=O)c2ccc(F)c(F)c2)CC1,inconclusive: 1.2e-09 M
20,CCOC(=O)N1CCC(NS(=O)(=O)c2cc(Br)cnc2N)CC1,inactive
21,Cc1ccc2oc(NC(=O)N3CCOCC3)cc(=O)c2c1,inconclusive: 1.4e-09 M
22,Cc1cc(NC(=O)CCC(=O)N(c2cccnc2)C(C(=O)NC2CCCC2)c2ccccc2)no1 (configuration not stated),inconclusive: 2.4e-09 M

row,SMILES,max dye-equivalent concentration
1,COc1cc(OC)cc(C(=O)N2CCN(C(=O)COc3ccc4ccccc4c3)CC2)c1,inconclusive: 1.7e-09 M
2,Cc1cc2cc(C(c3nnnn3CC3CCCO3)N3CCCc4ccccc43)c(=O)[nH]c2cc1C (configuration not stated),inconclusive: 2.4e-09 M
3,CC(=N/O)/C(=N\O)c1ccc(C)o1,inconclusive: 1.3e-09 M
4,Cn1c(Sc2ccc(-c3cccnc3)n2C)ccc1-c1cccnc1,inactive
5,Cc1nc(SCC(=O)Nc2ccc(F)cc2)c2oc3ccccc3c2n1,inconclusive: 1.3e-09 M
6,O=c1c(-c2ccc(F)cc2)nc2cnc(N3CCNCC3)nc2n1Cc1cccs1,inactive
7,CCCc1cc(=O)[nH]c(SCC(=O)N(C)CC(=O)Nc2ccc(C)cc2)n1,inconclusive: 1.3e-09 M
8,Cc1ccccc1Cn1nc(C)c(NC(=O)c2nc3n(n2)C(C(F)F)CC(C)N3)c1C (configuration not stated),inconclusive: 1.5e-09 M
9,Cn1ccnc1SCC(=O)NC1CCCCC1,inconclusive: 1.6e-09 M
10,O=C(CCCn1c(=O)[nH]c2ccsc2c1=O)N1CCN(c2ccccn2)CC1,inconclusive: 1.1e-09 M
11,CCC(C)N(C(=O)COC(=O)c1[nH]c(C)c(C(C)=O)c1C)C1CCS(=O)(=O)C1 (configuration not stated),inconclusive: 2e-09 M
12,Cc1cc(C(F)F)n2nc(C(=O)Nc3ccccc3F)nc2n1,inconclusive: 1.2e-09 M
13,O=C(OCC(=O)N1CCc2ccccc21)c1ccccc1,inconclusive: 1.4e-09 M
14,CNCC[C@H](Oc1ccc(C(F)(F)F)cc1)c1ccccc1,inconclusive: 1.3e-09 M and inconclusive: 1.1e-09 M
15,Cc1nc(N2CCN(C)CC2)c2c(C)c(C(=O)Nc3ccc(F)cc3)sc2n1,inconclusive: 1.1e-09 M
16,Cc1nc2nc(-c3ccccc3)nn2c(C)c1Cl,inconclusive: 1.5e-09 M
17,CC(=O)N=c1sc(C(C)(C)C)c(C)n1C,inconclusive: 1.1e-09 M
18,COCc1cc(C)nc2sc(C(=O)OC)c(N)c12,inconclusive: 1.8e-09 M
19,c1ccc(-n2ncc3c2ncn2nc(CSc4nc5ccccc5s4)nc32)cc1,inactive
20,O=C1C(c2ccc(F)cc2)N(Cc2ccc3c(c2)OCO3)C(=O)CN1C1CCCCC1 (configuration not stated),inconclusive: 1.6e-09 M
21,COc1cc(/C=C/C2=NC(=O)C(C)(C)O2)ccc1O,inactive

# Copied from the list.
# CCCc1cc(=O)[nH]c(SCC(=O)N(C)CC(=O)Nc2ccc(C)cc2)n1 – max dye-equivalent concentration: inconclusive: 1.3e-09 M
# O=C1C(c2ccc(F)cc2)N(Cc2ccc3c(c2)OCO3)C(=O)CN1C1CCCCC1 (configuration not stated) – max dye-equivalent concentration: inconclusive: 1.6e-09 M
# c1ccc(-n2ncc3c2ncn2nc(CSc4nc5ccccc5s4)nc32)cc1 – max dye-equivalent concentration: inactive
# Cc1nc(N2CCN(C)CC2)c2c(C)c(C(=O)Nc3ccc(F)cc3)sc2n1 – max dye-equivalent concentration: inconclusive: 1.1e-09 M
# CC(=N/O)/C(=N\O)c1ccc(C)o1 – max dye-equivalent concentration: inconclusive: 1.3e-09 M

# Reference: PubChem BioAssay AID587 (National Center for Advancing Translational Sciences (NCATS), 2007)
